Taken from: PubChem BioAssay AID1159579 (Peter MacCallum Cancer Centre, 2015)
Assay: 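Follow-up screen seeking modulators of motility in lymphatic endothelial cells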 (follow-up of hits). Cell system: human dermal lymphatic endothelial cells. Reagents: single siRNA against human genes, 25 nM. Read-out: 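High content images of wound closure area and cell nuclei counts, each the average of two wells, expressed against mock transfection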. Scale: migration relative to mock: higher = more migration into the scratch; mean nuclei count: higher = more cells remaining. Call rule: 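Called active when the migration ratio is 0.6 or lower (impaired) or 1.3 or higher (accelerated), but inactive whenever the mean nuclei count falls under 3300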. Meaning of the calls: active = migration changed (impaired or accelerated); inactive = no migration change, or too few cells.
Here is an unselected part of about 2,000 deposited reagents. Over the whole deposit, 549 (27%) are marked active. 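Some migration ratios are negative; siRNAs with too few cells are inactive whatever their migration ratio.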 Reagents against one gene are numbered here. Not stated in the record: the time to read-out.

DIO1 (iodothyronine deiodinase 1) #1 → migration relative to mock = 0.28; migration and cell number class = migration reduced; mean nuclei count = 3806; call = active
DIO1 (iodothyronine deiodinase 1) #2 → migration relative to mock = 0.96; migration and cell number class = no change in migration or cell number; mean nuclei count = 5830; call = inactive
DIO1 (iodothyronine deiodinase 1) #3 → migration relative to mock = 1.03; migration and cell number class = no change in migration or cell number; mean nuclei count = 4801; call = inactive
DIO1 (iodothyronine deiodinase 1) #4 → migration relative to mock = 0.24; migration and cell number class = too few cells; migration not scored; mean nuclei count = 3024; call = inactive
PHACTR1 (phosphatase and actin regulator 1) #1 → migration relative to mock = 0.78; migration and cell number class = no change in migration or cell number; mean nuclei count = 6164; call = inactive
PHACTR1 (phosphatase and actin regulator 1) #2 → migration relative to mock = 0.95; migration and cell number class = no change in migration or cell number; mean nuclei count = 5786; call = inactive
PHACTR1 (phosphatase and actin regulator 1) #3 → migration relative to mock = 0.36; migration and cell number class = migration reduced; mean nuclei count = 3830; call = active
PHACTR1 (phosphatase and actin regulator 1) #4 → migration relative to mock = 0.78; migration and cell number class = no change in migration or cell number; mean nuclei count = 5031; call = inactive
PRKG2 (protein kinase cGMP-dependent 2) #1 → migration relative to mock = 0.7; migration and cell number class = no change in migration or cell number; mean nuclei count = 5478; call = inactive
PRKG2 (protein kinase cGMP-dependent 2) #2 → migration relative to mock = 0.12; migration and cell number class = migration reduced; mean nuclei count = 4715; call = active
PRKG2 (protein kinase cGMP-dependent 2) #3 → migration relative to mock = 0.7; migration and cell number class = no change in migration or cell number; mean nuclei count = 4728; call = inactive
PRKG2 (protein kinase cGMP-dependent 2) #4 → migration relative to mock = 0.57; migration and cell number class = migration reduced; mean nuclei count = 8111; call = active
NCS1 (neuronal calcium sensor 1) #1 → migration relative to mock = 0.74; migration and cell number class = no change in migration or cell number; mean nuclei count = 5669; call = inactive
NCS1 (neuronal calcium sensor 1) #2 → migration relative to mock = 0.75; migration and cell number class = no change in migration or cell number; mean nuclei count = 6624; call = inactive
NCS1 (neuronal calcium sensor 1) #3 → migration relative to mock = 0.63; migration and cell number class = no change in migration or cell number; mean nuclei count = 5904; call = inactive
NCS1 (neuronal calcium sensor 1) #4 → migration relative to mock = 1.17; migration and cell number class = no change in migration or cell number; mean nuclei count = 6138; call = inactive
GPATCH4 (G-patch domain containing 4 (gene/pseudogene)) #1 → migration relative to mock = 0.66; migration and cell number class = no change in migration or cell number; mean nuclei count = 5018; call = inactive
GPATCH4 (G-patch domain containing 4 (gene/pseudogene)) #2 → migration relative to mock = 0.99; migration and cell number class = no change in migration or cell number; mean nuclei count = 5610; call = inactive
GPATCH4 (G-patch domain containing 4 (gene/pseudogene)) #3 → migration relative to mock = 0.76; migration and cell number class = no change in migration or cell number; mean nuclei count = 4284; call = inactive
GPATCH4 (G-patch domain containing 4 (gene/pseudogene)) #4 → migration relative to mock = 0.98; migration and cell number class = no change in migration or cell number; mean nuclei count = 4830; call = inactive
IGLL1 (immunoglobulin lambda like polypeptide 1) #1 → migration relative to mock = 0.82; migration and cell number class = no change in migration or cell number; mean nuclei count = 6392; call = inactive
IGLL1 (immunoglobulin lambda like polypeptide 1) #2 → migration relative to mock = 0.3; migration and cell number class = too few cells; migration not scored; mean nuclei count = 2788; call = inactive
IGLL1 (immunoglobulin lambda like polypeptide 1) #3 → migration relative to mock = 0.74; migration and cell number class = no change in migration or cell number; mean nuclei count = 4006; call = inactive
IGLL1 (immunoglobulin lambda like polypeptide 1) #4 → migration relative to mock = 0.58; migration and cell number class = migration reduced; mean nuclei count = 4834; call = active

No new results follow: entries from further up.
PRKG2 (protein kinase cGMP-dependent 2) #1 → migration relative to mock = 0.7; migration and cell number class = no change in migration or cell number; mean nuclei count = 5478; call = inactive
PRKG2 (protein kinase cGMP-dependent 2) #2 → migration relative to mock = 0.12; migration and cell number class = migration reduced; mean nuclei count = 4715; call = active
